PubChem BioAssay AID270 (DTP/NCI, 2004)
The list shows only some results of the screen, not a fair sample: it covers a few groups of compounds. Other doses and runs of a compound may be missing. T/C: endpoint of the treated group in % of that of the vehicle group. Schedule codes are those of the source, read here as Q, the interval in days (D) or hours (H), X, the number of doses. Some T/C values carry the count of animals alive at the toxicity check; without a count or a note in brackets, all were alive then. Some doses have a count of surviving animals in place of a T/C: the source holds a T/C of zero for them, seemingly a mark for toxic or unscored doses. Some doses without a T/C left all or most animals alive at the check, yet need not have been tolerated: survival well below the control is almost never listed, so the zero probably covers shortened survival too. Survivors were counted at the toxicity check, usually on the fifth day, unless a day is given; later deaths do not show. Where survival is the endpoint, this PubChem deposit counts one and a half times the control or more as active, and values a quarter to a half above the control carry no call in these data; other NCI protocols may use other cut-offs. Some T/C values are followed by the survivors on the day toxicity was checked, most often the fifth; without a count or a note in brackets, all were alive then.

Tested on: BDF1 mice, s.c. Lewis lung carcinoma, T/C %
Assay: NCI In Vivo Anticancer Drug Screen. Data for tumor model Lewis Lung Carcinoma (subcutaneous) in B6D2F1 (BDF1) mice
Protocol: The antitumor activity of compounds was measured in mice bearing transplantable tumors. Survival or tumor size were measured and the results are expressed as the measurement made in the treated group (T) divided by the measurement made in the vehicle treated control group (C). The tumor model used in this assay is Lewis Lung Carcinoma (subcutaneous) in B6D2F1 (BDF1) mice

For COc1cc2c(c3oc4cccc(O)c4c(=O)c13)[C@@H]1C=CO[C@@H]1O2, the T/C (T/C endpoint: median survival time, dose: 3.75 mg/kg/injection, schedule: Q01DX009 (ip), vehicle: Klucel (hydroxypropylcellulose) (HPC), higher T/C = longer survival) was 87 % of control, the T/C (T/C endpoint: median survival time, dose: 4.0 mg/kg/injection, schedule: Q01DX009 (ip), vehicle: saline with Tween-80, higher T/C = longer survival) was 94 % of control and the T/C (T/C endpoint: median survival time, dose: 7.5 mg/kg/injection, schedule: Q01DX009 (ip), vehicle: Klucel (hydroxypropylcellulose) (HPC), higher T/C = longer survival) was 108 % of control. For the same compound, the T/C (T/C endpoint: median survival time, dose: 8.0 mg/kg/injection, schedule: Q01DX009 (ip), vehicle: saline with Tween-80, higher T/C = longer survival) was 104 % of control, the T/C (T/C endpoint: median survival time, dose: 15.0 mg/kg/injection, schedule: Q01DX009 (ip), vehicle: Klucel (hydroxypropylcellulose) (HPC), higher T/C = longer survival) was 100 % of control and the T/C (T/C endpoint: median survival time, dose: 16.0 mg/kg/injection, schedule: Q01DX009 (ip), vehicle: saline with Tween-80, higher T/C = longer survival) was 103 % of control. The survivor count (T/C endpoint: median survival time, dose: 30.0 mg/kg/injection, schedule: Q01DX009 (ip), vehicle: Klucel (hydroxypropylcellulose) (HPC), higher T/C = longer survival) was 10 of 10, the T/C (T/C endpoint: median survival time, dose: 32.0 mg/kg/injection, schedule: Q01DX009 (ip), vehicle: saline with Tween-80, higher T/C = longer survival) was 103 % of control and the survivor count (T/C endpoint: median survival time, dose: 60.0 mg/kg/injection, schedule: Q01DX009 (ip), vehicle: Klucel (hydroxypropylcellulose) (HPC), higher T/C = longer survival) was 10 of 10. The T/C (T/C endpoint: median survival time, dose: 64.0 mg/kg/injection, schedule: Q01DX009 (ip), vehicle: saline with Tween-80, higher T/C = longer survival) was 128 % of control and the T/C (T/C endpoint: median survival time, dose: 128.0 mg/kg/injection, schedule: Q01DX009 (ip), vehicle: saline with Tween-80, higher T/C = longer survival) was 87 % of control.

For CC1=C2C(=CC(C)(C)C2O)C(O)C(C)(O)C12CC2 (centres undefined), the T/C (T/C endpoint: mean tumor weight, dose: 0.25 mg/kg/injection, schedule: Q01DX011 (ip), vehicle: saline, evaluated on day 12, higher T/C = larger tumour) was 80 % of control, the T/C (T/C endpoint: mean tumor weight, dose: 0.5 mg/kg/injection, schedule: Q01DX011 (ip), vehicle: saline, evaluated on day 12, higher T/C = larger tumour) was 49 % of control and the T/C (T/C endpoint: mean tumor weight, dose: 1.0 mg/kg/injection, schedule: Q01DX011 (ip), vehicle: saline, evaluated on day 12, higher T/C = larger tumour) was 90 % of control. The T/C (T/C endpoint: mean tumor weight, dose: 2.0 mg/kg/injection, schedule: Q01DX011 (ip), vehicle: saline, evaluated on day 12, higher T/C = larger tumour) was 52 % of control.

Cc1[nH]c(=O)[nH]c(=O)c1N(CCCl)CCCl was tested, and the T/C (T/C endpoint: median survival time, dose: 0.5 mg/kg/injection, schedule: Q01DX009 (ip), vehicle: Klucel (hydroxypropylcellulose) (HPC), higher T/C = longer survival) was 123 % of control, the T/C (T/C endpoint: median survival time, dose: 1.0 mg/kg/injection, schedule: Q01DX009 (ip), vehicle: Klucel (hydroxypropylcellulose) (HPC), higher T/C = longer survival) was 126 % of control and the survivor count (T/C endpoint: median survival time, dose: 2.0 mg/kg/injection, schedule: Q01DX009 (ip), vehicle: Klucel (hydroxypropylcellulose) (HPC), higher T/C = longer survival) was 9 of 9. For the same compound, the survivor count (T/C endpoint: median survival time, dose: 4.0 mg/kg/injection, schedule: Q01DX009 (ip), vehicle: Klucel (hydroxypropylcellulose) (HPC), higher T/C = longer survival) was 9 of 10.

In the case of CCN(CCCl)CC1OC(OC)C2OC(C)(C)OC12 (centres undefined), the T/C (T/C endpoint: median survival time, dose: 4.3 mg/kg/injection, schedule: Q01DX009 (ip), vehicle: saline, higher T/C = longer survival) is reported as 101 % of control, the T/C (T/C endpoint: median survival time, dose: 7.2 mg/kg/injection, schedule: Q01DX009 (ip), vehicle: saline, higher T/C = longer survival) is reported as 99 % of control and the survivor count (T/C endpoint: median survival time, dose: 12.0 mg/kg/injection, schedule: Q01DX009 (ip), vehicle: saline, higher T/C = longer survival) is reported as 10 of 10. The survivor count (T/C endpoint: median survival time, dose: 20.0 mg/kg/injection, schedule: Q01DX009 (ip), vehicle: saline, higher T/C = longer survival) was 10 of 10.

With NC1CCCCC1.O=P(O)(NCCCO)N(CCCl)CCCl the T/C (T/C endpoint: mean tumor weight, dose: 25.0 mg/kg/injection, schedule: Q01DX011 (ip), vehicle: saline, evaluated on day 12, higher T/C = larger tumour) was 82 % of control, the T/C (T/C endpoint: mean tumor weight, dose: 50.0 mg/kg/injection, schedule: Q01DX011 (ip), vehicle: saline, evaluated on day 12, higher T/C = larger tumour) was 66 % of control and the T/C (T/C endpoint: mean tumor weight, dose: 100.0 mg/kg/injection, schedule: Q01DX011 (ip), vehicle: saline, evaluated on day 12, higher T/C = larger tumour) was 47 % of control. The T/C (T/C endpoint: mean tumor weight, dose: 200.0 mg/kg/injection, schedule: Q01DX011 (ip), vehicle: saline, evaluated on day 12, higher T/C = larger tumour) was 16 % of control.

With Nc1cc([As]=O)ccc1O (centres undefined) the T/C (T/C endpoint: median survival time, dose: 12.5 mg/kg/injection, schedule: Q01DX009 (ip), vehicle: saline with Tween-80, higher T/C = longer survival) was 100 % of control, the T/C (T/C endpoint: median survival time, dose: 25.0 mg/kg/injection, schedule: Q01DX009 (ip), vehicle: saline with Tween-80, higher T/C = longer survival) was 93 % of control and the T/C (T/C endpoint: median survival time, dose: 50.0 mg/kg/injection, schedule: Q01DX009 (ip), vehicle: saline with Tween-80, higher T/C = longer survival) was 90 % of control [9 of 10 alive]. The survivor count (T/C endpoint: median survival time, dose: 75.0 mg/kg/injection, schedule: Q01DX009 (ip), vehicle: saline with Tween-80, higher T/C = longer survival) was 3 of 10.

For O=NN1CCN/C1=N\[N+](=O)[O-], the T/C (T/C endpoint: median survival time, dose: 50.0 mg/kg/injection, schedule: Q02DX009 (ip), vehicle: saline with Tween-80, higher T/C = longer survival) was 125 % of control, the T/C (T/C endpoint: median survival time, dose: 100.0 mg/kg/injection, schedule: Q02DX009 (ip), vehicle: saline with Tween-80, higher T/C = longer survival) was 114 % of control and the T/C (T/C endpoint: median survival time, dose: 200.0 mg/kg/injection, schedule: Q02DX009 (ip), vehicle: saline with Tween-80, higher T/C = longer survival) was 104 % of control [9 of 10 alive]. For the same compound, the survivor count (T/C endpoint: median survival time, dose: 400.0 mg/kg/injection, schedule: Q02DX009 (ip), vehicle: saline with Tween-80, higher T/C = longer survival) was 7 of 10.

In the case of NC1CCCCC1.O=P(O)(N(CCCl)CCCl)N1CC1, the T/C (T/C endpoint: median survival time, dose: 6.25 mg/kg/injection, schedule: Q08DX002 (ip), vehicle: saline, higher T/C = longer survival) is reported as 114 % of control, the T/C (T/C endpoint: median survival time, dose: 12.5 mg/kg/injection, schedule: Q04DX003 (ip), vehicle: saline, higher T/C = longer survival) is reported as 114 % of control and the T/C (T/C endpoint: median survival time, dose: 12.5 mg/kg/injection, schedule: Q08DX002 (ip), vehicle: saline, higher T/C = longer survival) is reported as 115 % of control. For the same compound, the T/C (T/C endpoint: median survival time, dose: 25.0 mg/kg/injection, schedule: Q04DX003 (ip), vehicle: saline, higher T/C = longer survival) was 112 % of control, the T/C (T/C endpoint: median survival time, dose: 25.0 mg/kg/injection, schedule: Q08DX002 (ip), vehicle: saline, higher T/C = longer survival) was 100 % of control and the T/C (T/C endpoint: median survival time, dose: 50.0 mg/kg/injection, schedule: Q04DX003 (ip), vehicle: saline, higher T/C = longer survival) was 112 % of control. The T/C (T/C endpoint: median survival time, dose: 50.0 mg/kg/injection, schedule: Q08DX002 (ip), vehicle: saline, higher T/C = longer survival) was 107 % of control and the T/C (T/C endpoint: median survival time, dose: 100.0 mg/kg/injection, schedule: Q04DX003 (ip), vehicle: saline, higher T/C = longer survival) was 96 % of control.

With O=P1(N(CCCl)CCCl)OCCCN1CCCl (centres undefined) the T/C (T/C endpoint: mean tumor weight, dose: 12.5 mg/kg/injection, schedule: Q01DX011 (ip), vehicle: saline, evaluated on day 12, higher T/C = larger tumour) was 36 % of control [5 of 6 alive].
